According to publication PMC7040187:
No constants are given. Whether binding was seen depends on the method and setting. Binding seen in cells or lysates may run through a third protein.

Protein sequences, listed by entry. Tags and fused reporters are not part of them.
UniProt Q9UPS6: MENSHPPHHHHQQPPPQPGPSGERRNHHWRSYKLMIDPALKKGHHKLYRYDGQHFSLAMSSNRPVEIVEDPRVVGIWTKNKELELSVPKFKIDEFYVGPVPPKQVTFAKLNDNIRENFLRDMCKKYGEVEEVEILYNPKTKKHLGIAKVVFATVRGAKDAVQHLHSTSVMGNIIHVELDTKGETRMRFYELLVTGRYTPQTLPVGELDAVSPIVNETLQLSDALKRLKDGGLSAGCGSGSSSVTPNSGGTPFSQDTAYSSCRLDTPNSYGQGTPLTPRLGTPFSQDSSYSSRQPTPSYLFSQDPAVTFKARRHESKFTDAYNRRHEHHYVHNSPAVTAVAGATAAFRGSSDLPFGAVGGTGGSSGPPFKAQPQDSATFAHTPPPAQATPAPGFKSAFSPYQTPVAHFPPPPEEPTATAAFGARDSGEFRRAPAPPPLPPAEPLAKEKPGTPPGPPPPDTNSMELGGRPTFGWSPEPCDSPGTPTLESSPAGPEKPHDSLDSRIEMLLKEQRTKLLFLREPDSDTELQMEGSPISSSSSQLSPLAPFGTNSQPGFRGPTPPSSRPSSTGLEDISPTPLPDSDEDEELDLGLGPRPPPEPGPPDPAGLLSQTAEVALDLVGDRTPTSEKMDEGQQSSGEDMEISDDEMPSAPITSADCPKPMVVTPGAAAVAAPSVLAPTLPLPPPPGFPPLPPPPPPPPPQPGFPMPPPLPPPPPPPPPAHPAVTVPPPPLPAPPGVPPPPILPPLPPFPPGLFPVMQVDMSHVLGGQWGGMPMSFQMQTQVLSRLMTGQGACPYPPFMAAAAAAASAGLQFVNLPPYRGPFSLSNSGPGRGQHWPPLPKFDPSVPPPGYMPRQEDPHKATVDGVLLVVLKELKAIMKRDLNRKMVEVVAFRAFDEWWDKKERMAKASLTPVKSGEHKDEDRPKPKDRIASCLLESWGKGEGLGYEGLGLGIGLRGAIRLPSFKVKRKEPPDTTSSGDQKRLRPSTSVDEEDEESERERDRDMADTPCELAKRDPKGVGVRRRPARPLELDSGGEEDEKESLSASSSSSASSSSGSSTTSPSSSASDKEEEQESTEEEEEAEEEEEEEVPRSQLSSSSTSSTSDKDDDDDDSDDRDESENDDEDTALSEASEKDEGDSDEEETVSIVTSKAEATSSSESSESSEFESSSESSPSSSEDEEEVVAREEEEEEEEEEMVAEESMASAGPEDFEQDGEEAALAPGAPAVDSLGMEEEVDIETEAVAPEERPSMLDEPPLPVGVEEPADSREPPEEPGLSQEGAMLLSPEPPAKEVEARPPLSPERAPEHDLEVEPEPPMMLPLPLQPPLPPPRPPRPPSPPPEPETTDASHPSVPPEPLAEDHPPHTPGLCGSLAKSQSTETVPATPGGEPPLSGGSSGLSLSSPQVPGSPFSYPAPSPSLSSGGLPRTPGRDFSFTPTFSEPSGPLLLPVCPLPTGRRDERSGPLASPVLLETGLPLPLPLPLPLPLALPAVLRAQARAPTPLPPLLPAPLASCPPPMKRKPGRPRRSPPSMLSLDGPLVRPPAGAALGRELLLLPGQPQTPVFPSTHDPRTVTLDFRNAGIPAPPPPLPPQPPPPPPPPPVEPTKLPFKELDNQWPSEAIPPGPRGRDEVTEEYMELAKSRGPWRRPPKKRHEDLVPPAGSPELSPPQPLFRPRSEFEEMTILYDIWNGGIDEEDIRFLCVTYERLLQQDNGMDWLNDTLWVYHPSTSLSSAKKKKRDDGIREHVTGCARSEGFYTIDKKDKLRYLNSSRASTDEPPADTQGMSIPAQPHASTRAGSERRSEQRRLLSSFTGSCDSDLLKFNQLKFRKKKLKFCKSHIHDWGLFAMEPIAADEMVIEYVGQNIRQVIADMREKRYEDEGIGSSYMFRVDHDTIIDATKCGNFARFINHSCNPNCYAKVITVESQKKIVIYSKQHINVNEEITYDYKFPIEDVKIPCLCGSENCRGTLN

Molecular target: SET domain containing 1B (SETD1B), histone-lysine N-methyltransferase (human (endogenous in HCT116)) (UniProt Q9UPS6)
Assay: proximity ligation; Duolink in situ PLA in HCT WT and HCT p21-/- cells; co-stained overnight at 4 C with SETD1B (rabbit, Abcam ab113984) and ZEB1 (mouse, R&D 639914) antibodies; EpCAM as negative control

binding: no binding
B1: EpCAM (protein, UniProt P16422 24-314)
chain: QEECVCENYKLAVNCFVNNNRQCQCTSVGAQNTVICSKLAAKCLVMKAEMNGSKLGRRAKPEGALQNNDGLYDPDCDESGLFKAKQCNGTSMCWCVNTAGVRRTDKDTEITCSERVRTYWIIIELKHKAREKPYDSKSLRTALQKEITTRYQLDPKFITSILYENNVITIDLVQNSSQKTQNDVDIADVAYYFEKDVKGESLFHSKKMDLTVNGEQLDLDPGQTLIYYVDEKAPEFSMQGLKAGVIAVIVVVVIAVVAGIVVLVISRKKRMAKYEKAEIKEMGEMHRELNA
